Assay results taken from paper PMC12595865.
No constants are given. Whether binding was seen depends on the method and setting. Binding seen in cells or lysates may run through a third protein. These calls come from enrichment with a bait or labelling near it, and not all partners need be listed.

The chains behind the UniProt entries cited, without tags or fusion partners.
UniProt P15090: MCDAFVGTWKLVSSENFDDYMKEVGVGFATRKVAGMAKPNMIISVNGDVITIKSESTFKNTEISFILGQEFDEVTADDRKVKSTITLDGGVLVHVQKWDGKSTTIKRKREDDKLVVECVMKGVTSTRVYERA

Molecular target: FABP4 expressed from a plasmid in HEK293T cells (bait of the IP-mass spectrometry) (UniProt P15090)
Experiment: affinity purification with mass spectrometry; HEK293T cells transfected with a plasmid expressing FABP4 or a control vector; FABP4 immunoprecipitation, with IgG immunoprecipitation as negative control; bands cut from a silver-stained 12% SDS-PAGE gel, LC-MS/MS; hits intersected with the top 500 inflammation-related genes of GeneCards

B1: S100A9 found by IP-mass spectrometry of FABP4 in HEK293T cells (protein, UniProt P06702 1-114)
chain: MTCKMSQLERNIETIINTFHQYSVKLGHPDTLNQGEFKELVRKDLQNFLKKENKNEKVIEHIMEDLDTNADKQLSFEEFIMLMARLTWASHEKMHEGDEGPGHHHKPGLGEGTP
In the case of B1, the binding is reported as “binds”.
